Data taken from ChEMBL document CHEMBL3988442, “University of Dundee, Small-Polar-MMV Screening Library” (2021).

Protein sequences, listed by entry. Tags and fused reporters are not part of them. Residues count along the entry.
UniProt Q4DA54, 1-478: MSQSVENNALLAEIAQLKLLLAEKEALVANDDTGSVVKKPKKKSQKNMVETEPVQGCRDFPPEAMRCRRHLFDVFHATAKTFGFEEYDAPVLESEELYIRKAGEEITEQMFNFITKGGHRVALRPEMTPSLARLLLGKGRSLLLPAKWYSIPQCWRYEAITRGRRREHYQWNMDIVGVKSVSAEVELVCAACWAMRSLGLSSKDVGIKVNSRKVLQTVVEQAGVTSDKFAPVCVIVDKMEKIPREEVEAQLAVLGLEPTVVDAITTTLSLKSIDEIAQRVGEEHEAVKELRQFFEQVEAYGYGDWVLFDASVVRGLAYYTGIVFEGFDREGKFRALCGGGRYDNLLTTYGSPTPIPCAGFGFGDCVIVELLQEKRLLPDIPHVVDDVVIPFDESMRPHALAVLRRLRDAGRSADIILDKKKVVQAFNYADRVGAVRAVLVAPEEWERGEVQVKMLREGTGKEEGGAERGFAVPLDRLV
UniProt A4I591, 1-473: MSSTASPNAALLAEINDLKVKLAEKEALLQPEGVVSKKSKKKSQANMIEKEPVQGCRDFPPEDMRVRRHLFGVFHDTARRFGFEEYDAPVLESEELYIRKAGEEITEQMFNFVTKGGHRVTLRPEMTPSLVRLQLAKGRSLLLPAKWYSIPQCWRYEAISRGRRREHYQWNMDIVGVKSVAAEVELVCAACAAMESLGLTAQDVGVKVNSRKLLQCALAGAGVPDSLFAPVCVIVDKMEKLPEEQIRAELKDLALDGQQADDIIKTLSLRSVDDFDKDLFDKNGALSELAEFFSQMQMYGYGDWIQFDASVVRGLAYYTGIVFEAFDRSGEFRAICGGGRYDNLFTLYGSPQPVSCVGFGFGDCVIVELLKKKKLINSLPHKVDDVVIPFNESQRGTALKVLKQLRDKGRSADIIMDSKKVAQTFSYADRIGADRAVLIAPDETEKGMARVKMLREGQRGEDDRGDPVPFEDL

T. brucei: 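Whole-parasite assay of Trypanosoma brucei over 72 hours; the read-out is not stated. Concentration: 30 µM. Higher reads as stronger inhibition (inferred: compounds with an IC50 in retests scored well above the rest). Values scatter widely below zero; nearly all retest evidence comes from the higher of the two concentrations used. Size under these conditions: about 64,000 compounds, about 940 of them at 50% or above in at least one test.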
TcHisRS: 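Enzyme assay of histidyl-tRNA synthetase; the read-out is not stated. Target: Histidine-tRNA ligase, Trypanosoma cruzi CL Brener (UniProt Q4DA54). Tested at 30 µM. Direction is inferred from retests: higher values go with stronger inhibition. About 69,000 compounds were tested under these conditions; 0.045% (about 31) showed 50% or more at least once.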
LiHisRS: 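Enzyme assay of histidyl-tRNA synthetase; the read-out is not stated. Target: Histidine-tRNA ligase, Leishmania infantum (UniProt A4I591). Compounds at 30 µM. The record gives no direction; compounds that gave an IC50 in retests scored well above the rest, so higher reads as stronger inhibition. The assay is labelled LdHisRS but filed under L. infantum. Of about 69,000 compounds tested this way, about 410 (0.6%) reached 50% or more in at least one test.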

Results are given as percent effect. The record does not define 0% and 100%; most values in the screen are far below 50% and negative numbers occur (in some assays of this library far below -100). This is an unselected part of the compounds tested. A dash means the value is not listed here; it may have been measured.

- COc1ccccc1OCCNCc1c(C(C)C)nn(C)c1N(C)C : TcHisRS: 7.647%; LiHisRS: 16.51%
- COc1cccc(CN2CCCC3(CCN(C(=O)c4ccco4)C3)C2)c1 (centres undefined) : T. brucei: 7.427%; TcHisRS: 6.767%; LiHisRS: 34.15%
- Cc1nnc2n1CCN(C(=O)C1CCN(Cc3ccccc3)CC1)C2 : T. brucei: -57.7%; TcHisRS: 7.182%; LiHisRS: 4.819%
- CCn1ccnc1CN1CCOC(CNc2cccnn2)C1 (centres undefined) : T. brucei: 11.8%; TcHisRS: -2.29%; LiHisRS: 16.44%
- COCc1nc2cc(NCc3scnc3C)ccc2o1 : T. brucei: -25.04%; TcHisRS: 3.448%; LiHisRS: 54.46%
- O=C(c1ccc(F)c(F)c1)N1CCCCC1c1nc[nH]n1 (centres undefined) : T. brucei: -8.183%; TcHisRS: 0%; LiHisRS: 5.479%
- CCc1noc(CN(C)C(=O)COc2cccc(Cl)c2C)n1 : T. brucei: -92.57%; TcHisRS: 4.762%; LiHisRS: 8.219%
- [H][C@@]12CS(=O)(=O)C[C@]1([H])N(C(=O)CN1CCCC1)CCN2Cc1[nH]cnc1C : T. brucei: 8.106%
- Cc1cc(C)n(CC(=O)N(C)Cc2csc(-c3cccs3)n2)c(=O)n1 : T. brucei: 33.34%; TcHisRS: 2.905%; LiHisRS: 30.1%
- O=C(NS(=O)(=O)c1cccc(F)c1)c1ccccc1F : T. brucei: -2.234%; TcHisRS: 1.604%; LiHisRS: 9.948%
- O=C(NCC1(O)CCOCC1)c1ccc(F)cc1 : T. brucei: 13.93%; TcHisRS: 6.533%; LiHisRS: 4.494%
- CC(C)CNC(=O)c1cc2c(s1)CCN2Cc1cccnc1 : T. brucei: -29.18%; TcHisRS: 13.98%; LiHisRS: 40.35%
- Cc1cc(C2CCCN(CCS(=O)(=O)c3ccccc3)C2)n[nH]1 (centres undefined) : T. brucei: -11.09%; TcHisRS: 2.907%; LiHisRS: 14.29%
- O=C(CNC(=O)N1CCc2c([nH]c3ccc(Cl)cc23)C1)NC1CCCC1 : T. brucei: 10.75%; TcHisRS: 5.263%; LiHisRS: 7.895%
- Cc1ccnn1C(C)C(=O)Nc1cc(-c2ccncc2)[nH]n1 (centres undefined) : T. brucei: 24.67%; TcHisRS: 3.704%; LiHisRS: 17.65%
- CC(C)C1CN(C(=O)c2ccc(N3CCCC3)nc2)CCS1 (centres undefined) : T. brucei: -28.16%; TcHisRS: 3.347%; LiHisRS: 14.15%
- COc1cccnc1NC(=O)c1ccc(COCC(F)(F)F)cc1 : T. brucei: -11.87%; TcHisRS: 11.88%; LiHisRS: 7.143%
- CCc1ncnc2c1CCN(Cc1cccs1)CC2.O=C(O)C(F)(F)F : T. brucei: 13.5%
- Cc1ccc(C(=O)N2CCc3c(CNc4ncccn4)cncc3C2)o1 : TcHisRS: 0%; LiHisRS: 5.556%
- [H][C@@]12COC[C@]1([H])[C@@H](OC)CN2C(=O)c1ccnnc1 : T. brucei: -7.708%
- Cc1ccnc(NC(=O)c2ccc(Cl)o2)c1 : T. brucei: -67.35%; TcHisRS: 4.433%; LiHisRS: 22.37%
- CC(C)CS(=O)(=O)N1C[C@H]2C[C@H](C(=O)N3CCOCC3)[C@@H](C1)O2 : TcHisRS: 3.333%; LiHisRS: 1.887%
- CN1CCN(c2cc(CNC(=O)c3cnccn3)ccn2)CC1 : TcHisRS: 5.882%; LiHisRS: 12.84%
- CCc1ccc2nc(NCCOCCO)cc(C)c2c1 : T. brucei: 47.63%; TcHisRS: 8.671%; LiHisRS: 9.333%
- Cn1nc(C#N)c2c1CN(C(=O)c1c[nH]cn1)CCC2 : T. brucei: -22.7%; TcHisRS: 4.124%; LiHisRS: 12%
- Cc1noc(C)c1CN1CCC2(CC1)C(c1cnn(C)c1)CC(=O)N2C.O=C(O)C(F)(F)F (centres undefined) : T. brucei: -80.88%
- Cc1cnn(C2CCCN(C(=O)c3cc(C)sc3C)C2)c1 (centres undefined) : T. brucei: -15.05%; TcHisRS: -1.087%; LiHisRS: 14.29%
- COc1nc2ccn(CCc3cc(O)nc(C)n3)c(=O)c2cc1C#N : T. brucei: -17.7%; TcHisRS: 1.02%; LiHisRS: 8.571%
- O=C1CSc2ccccc2N1Cc1noc(C2CCCO2)n1 (centres undefined) : T. brucei: 5.508%; TcHisRS: 3.483%; LiHisRS: 20.98%
- COC(=O)C(C)CN(C)S(=O)(=O)c1c(Br)cc2[nH]c(=O)oc2c1Cl (centres undefined) : T. brucei: 0.7165%; TcHisRS: 6.952%; LiHisRS: 13.09%
- Cc1n[nH]c(C)c1CN(C)C(C(=O)O)c1c(F)cccc1OC(C)C (centres undefined) : T. brucei: -58.72%; TcHisRS: 7.831%; LiHisRS: 24.18%
- c1cc(-c2cnc(NC3CC3)nc2[C@@H]2CCCO2)ccn1 : TcHisRS: 0.3759%; LiHisRS: -5.674%
- O=S(=O)(NCc1ccccc1)N(Cc1ccccn1)CC1CCCO1 (centres undefined) : T. brucei: 37.85%; TcHisRS: 0.8%; LiHisRS: 4.918%
- CCCN1CCCC1Cn1nc(C)cc1C (centres undefined) : TcHisRS: 4.118%; LiHisRS: 5.505%

Repeated from the top, 3 entries:

SMILES	T. brucei	TcHisRS	LiHisRS
COc1ccccc1OCCNCc1c(C(C)C)nn(C)c1N(C)C	-	7.647%	16.51%
COc1cccc(CN2CCCC3(CCN(C(=O)c4ccco4)C3)C2)c1 (centres undefined)	7.427%	6.767%	34.15%
Cc1nnc2n1CCN(C(=O)C1CCN(Cc3ccccc3)CC1)C2	-57.7%	7.182%	4.819%